{"sequences": {"note": "Amino acid sequences for entries named in this document (tags omitted). A change or cut given only in a name is not applied to a line headed by its entry.", "UniProt O94782": "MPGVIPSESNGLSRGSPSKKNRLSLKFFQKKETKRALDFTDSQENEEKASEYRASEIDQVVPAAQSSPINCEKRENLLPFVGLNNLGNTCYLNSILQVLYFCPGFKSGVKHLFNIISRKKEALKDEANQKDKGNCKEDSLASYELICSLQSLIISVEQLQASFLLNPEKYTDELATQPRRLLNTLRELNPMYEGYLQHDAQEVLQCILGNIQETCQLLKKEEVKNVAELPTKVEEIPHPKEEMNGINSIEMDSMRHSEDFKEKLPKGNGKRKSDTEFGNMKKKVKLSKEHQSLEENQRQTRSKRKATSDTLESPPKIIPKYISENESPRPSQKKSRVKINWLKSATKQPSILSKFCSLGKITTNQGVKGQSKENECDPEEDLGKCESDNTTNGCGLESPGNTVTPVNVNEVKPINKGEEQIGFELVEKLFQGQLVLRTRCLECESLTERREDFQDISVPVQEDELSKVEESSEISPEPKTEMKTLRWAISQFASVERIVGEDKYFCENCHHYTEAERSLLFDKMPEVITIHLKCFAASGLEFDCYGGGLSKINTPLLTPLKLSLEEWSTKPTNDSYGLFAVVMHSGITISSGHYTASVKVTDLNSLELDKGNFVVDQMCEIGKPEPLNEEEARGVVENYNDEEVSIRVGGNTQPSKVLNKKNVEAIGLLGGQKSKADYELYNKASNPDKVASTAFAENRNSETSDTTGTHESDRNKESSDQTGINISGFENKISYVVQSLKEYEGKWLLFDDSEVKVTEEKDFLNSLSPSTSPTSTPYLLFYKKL"}, "source": "PubChem BioAssay AID743255", "about": "(National Center for Advancing Translational Sciences (NCATS), 2014)", "note": "Hit rate of the full screen: of about 390,000 compounds, about 910 (0.23%) were called active. Inconclusive means that the source gave no clear call. Such entries were picked first, then a sample of the others. Calls follow the shape of the dose curve; as a rule, active = well fitted inhibition curve with a large enough effect; inconclusive = small, poorly fitted or top-dose-only effect; inactive = no such curve, though single readings can be large or run the other way. Potencies beside an inconclusive call are fits to weak or partial responses and may not hold up. % is scaled to controls: 0 for no effect and ±100 for the full control effect; potency is read from the fitted curve at half-maximal effect.", "data": [{"target": "Ubiquitin carboxyl-terminal hydrolase 1 (Homo sapiens) (UniProt O94782)", "experiment": "Inhibitors of USP1/UAF1: Primary Screen; also: nearly all actives have a fitted effect of over 60% in size", "conditions": "recombinant USP1/UAF1, Ub-Rhodamine cleavage fluorescence; activity change, negative = inhibition: at 57.1 µM (top of the series)", "how_it_was_run": "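Step one: compound is pinned into 1nM USP1/UAF1 in HEPES pH 7.8 buffer with TCEP. Step two: 15 min room-temperature incubation. Step three: Ub-Rho (150nM final) starts cleavage, tracked by fluorescence over six one-minute reads.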", "values": [{"compound": "Cc1nc(N2CCN(Cc3nc4ccccc4[nH]3)CC2)c2oc3ccccc3c2n1", "Potency": "inconclusive: 25.1 µM [inhibitor, partial curve]"}, {"compound": "Cc1ccc(CN(C)C(=O)CN2C(=O)NC3(CCCc4ccccc43)C2=O)c(C)c1", "note": "(stereo not drawn)", "activity change, negative = inhibition": "inactive: -9.6%"}, {"compound": "O=C(COC(=O)/C=C/c1ccc(F)cc1)Nc1ccc2[nH]c(=O)[nH]c2c1", "activity change, negative = inhibition": "inactive: -1.94%"}, {"compound": "CCC(=O)c1ccc(OCC(O)Cn2nnc3ccccc32)cc1", "note": "(stereo not drawn)", "activity change, negative = inhibition": "inactive: -5.86%"}, {"compound": "C[C@H](NC(=O)OC(C)(C)C)c1nnc(SCc2ccc(Cl)cc2Cl)o1", "activity change, negative = inhibition": "inactive: -24.4%"}, {"compound": "O=C1C(Nc2cccc(O)c2)=C(N2CCCCC2)C(=O)c2ccccc21", "Potency": "inconclusive: 5.01 µM [inhibitor, partial curve, poor fit]"}, {"compound": "Cc1cccn2c(=O)cc(COc3cccc(NC(=O)Nc4cccc(Cl)c4)c3)nc12", "Potency": "inconclusive: 0.1 µM [inhibitor, full curve, poor fit]"}, {"compound": "O=C(CCCn1c(=O)c2ccccc2n(CC(=O)NCc2ccco2)c1=O)NCc1ccco1", "activity change, negative = inhibition": "inactive: -4.36%"}, {"compound": "CCOc1ccccc1CN1CCN(Cc2csc(C(C)=O)c2)CC1CCO", "note": "(stereo not drawn)", "Potency": "inconclusive: 56.2 µM [inhibitor, partial curve, poor fit]"}, {"compound": "CSc1ccc(CCNC(=O)C2CCCN(S(=O)(=O)N(C)c3ccc(F)cc3)C2)cc1", "note": "(stereo not drawn)", "activity change, negative = inhibition": "inactive: -23.4%"}, {"compound": "CCOC(=O)c1sc(NC(=O)/C=C/c2cnn(CC)c2C)c(C(=O)OCC)c1C", "activity change, negative = inhibition": "inactive: -12.6%"}, {"compound": "CCN1C(=O)c2ccccc2S(=O)(=O)c2ccc(C(=O)NCc3ccc(C)cc3)cc21", "activity change, negative = inhibition": "inactive: -19.5%"}, {"compound": "CCOc1ccc(-c2nnc(SCC(=O)NC3CCCCC3)nc2-c2ccc(OCC)c(OC)c2)cc1OC", "Potency": "inconclusive: 50.1 µM [inhibitor, partial curve, poor fit]"}, {"compound": "CCN(Cc1ccccc1)C(=O)Cn1c(=O)cc(C)c2c(C)nn(-c3cccc(F)c3)c21", "activity change, negative = inhibition": "inactive: -14.6%"}, {"compound": "Cc1oc(-c2ccc(Cl)cc2)nc1CS(=O)CC(=O)NCc1ccccc1", "note": "(stereo not drawn)", "Potency": "inconclusive: 14.1 µM [inhibitor, partial curve, poor fit]"}, {"compound": "Cc1cccc(C)c1-n1c(C)cc(/C=N\\Nc2ccc([N+](=O)[O-])cn2)c1C", "activity change, negative = inhibition": "inactive: -14.1%"}, {"compound": "CCn1nc(C)c(CCN(C)C(=O)Nc2cc(Cl)c(OC)cc2OC)c1C", "Potency": "inconclusive: 44.7 µM [inhibitor, partial curve, poor fit]"}, {"compound": "O=C(CSc1n[nH]c(=O)[nH]c1=O)Nc1ccc(C(=O)O)cc1", "activity change, negative = inhibition": "inactive: -25.3%"}, {"compound": "Cc1nn(C(C)C(=O)NCC2CCCO2)c(=O)c2cc3occc3n12", "note": "(stereo not drawn)", "activity change, negative = inhibition": "inactive: -3.03%"}, {"compound": "CCOC(=O)C1=C(C)NC(SCC(=O)OC)=C(C#N)C1c1ccc(C(=O)OC)cc1", "note": "(stereo not drawn)", "Potency": "inactive"}, {"compound": "CCOC(=O)C(=Cc1ccc(Br)cc1)C(=O)OCC", "Potency": "inconclusive: 17.8 µM [inhibitor, partial curve]"}, {"compound": "CCCCCCn1c(=O)n2n(c1=O)C[C@]1(OC(=O)NC3CC3)CN(S(=O)(=O)c3ccc(C)cc3)C[C@]1(O)C2", "activity change, negative = inhibition": "inactive: -23%"}, {"compound": "Cc1ccccc1C(=O)NC(CC(C)C)C(=O)N1CCN(c2ccccc2)CC1", "note": "(stereo not drawn)", "Potency": "inconclusive: 0.794 µM [inhibitor, full curve, poor fit]"}, {"compound": "O=[N+]([O-])c1c(NCCCO)cc(Sc2nc3ccccc3s2)c2nonc12", "Potency": "inconclusive: 4.47 µM [inhibitor, full curve, poor fit]"}, {"compound": "CCCCCCOC(=O)c1ccc(OC(=O)c2cccnc2)cc1", "Potency": "inconclusive: 2 µM [inhibitor, partial curve]"}, {"compound": "COc1ccc(Cc2c(C)nn(-c3nc(C)c(C(=O)Nc4cccc(C(C)=O)c4)s3)c2C)cc1", "Potency": "inconclusive: 1.41 µM [inhibitor, full curve]"}, {"compound": "CC(=O)OC1CCC2C3CCC4OC(=O)CCC4C3CCC12C", "note": "(stereo not drawn)", "activity change, negative = inhibition": "inactive: -14.6%"}, {"compound": "CCS(=O)(=O)c1nc(S(=O)(=O)c2ccc(Cl)cc2)c(NCc2ccc(Cl)cc2)s1", "activity change, negative = inhibition": "inactive: -4%"}, {"compound": "CC(C)c1cc(CN2C(C)COCC2C)cc(C(C)C)c1O", "note": "(stereo not drawn)", "activity change, negative = inhibition": "inactive: -11.9%"}, {"compound": "CCc1c(C)sc(NC(=O)c2cc(-c3ccc(OC)c(OC)c3)on2)c1C#N", "Potency": "inconclusive: 0.398 µM [inhibitor, full curve, poor fit]"}, {"compound": "C#CCOCCOCCOCCNc1nc(N2CCN(C(=O)[C@H](CCCCN)n3cc([C@@H](N)C(C)CC)nn3)CC2)nc(N2CCN(C(=O)[C@H](Cc3cc4ccccc4[nH]3)n3cc([C@@H](N)CC(C)C)nn3)CC2)n1", "note": "(stereo partly drawn)", "Potency": "inconclusive: 0.631 µM [inhibitor, full curve, poor fit]"}, {"compound": "O=C(Nc1nc2ccccc2[nH]1)C1CCCC1", "Potency": "inconclusive: 5.01 µM [inhibitor, partial curve, poor fit]"}, {"compound": "COc1ccc(-n2c(SCC(=O)N3CCCCC3)nc3ccccc3c2=O)cc1", "activity change, negative = inhibition": "inactive: -15.9%"}, {"compound": "COc1cccc(NC(=O)CN(C)C(=O)Cc2ccc3c(c2)CCC3)c1", "activity change, negative = inhibition": "inactive: -6.62%"}, {"compound": "CC1(C(=O)OCC(=O)Nc2ccc3ccccc3c2)CC1(Cl)Cl", "note": "(stereo not drawn)", "Potency": "inconclusive: 7.08 µM [inhibitor, full curve, poor fit]"}, {"compound": "COC(=O)c1ccc2c(c1)N(CC(=O)Nc1ccc(C)c(C)c1)C(=O)c1ccccc1S2", "Potency": "inconclusive: 0.0282 µM [inhibitor, full curve, poor fit]"}, {"compound": "O=C1C2C3CCCC3=C3CCCC3C2C(=O)N1c1cccc(Cl)c1", "note": "(stereo not drawn)", "Potency": "inconclusive: 31.6 µM [inhibitor, partial curve]"}, {"compound": "Nc1cc2c(cc1N)-c1ccccc1C2", "Potency": "inconclusive: 35.5 µM [inhibitor, single point]"}, {"compound": "COc1cc(CNC[C@H]2O[C@@H](n3ccc(N)nc3=O)[C@H](O)[C@@H]2O)ccc1OCc1cccc(Cl)c1", "Potency": "inconclusive: 0.708 µM [inhibitor, full curve]"}, {"compound": "Cc1ccc(C(=O)NCC(=O)OCc2nnc(-c3ccc([N+](=O)[O-])cc3)o2)s1", "activity change, negative = inhibition": "inactive: -19.7%"}, {"compound": "C=CCN1C(=O)CS/C1=N/c1nccs1", "Potency": "inconclusive: 8.91 µM [inhibitor, single point]"}, {"compound": "NC(=O)CC(NC(=O)Cc1cccc2ccccc12)c1ccc(NCCc2ccccc2F)c([N+](=O)[O-])c1", "note": "(stereo not drawn)", "Potency": "inconclusive: 44.7 µM [inhibitor, partial curve, poor fit]"}, {"compound": "O=C(NN=Cc1ccc(Cl)cc1Cl)c1ccccc1", "Potency": "inconclusive: 5.01 µM [inhibitor, partial curve, poor fit]"}]}]}
